For some of these results: Expression grades refer to the transcript from which the peptide derives; gene names, where given, were looked up from the sequence.
Columns and labels:
[1] = test system: source genes of the peptides in CRC and normal tissues; test: mRNA expression profiling of source genes encoding the peptides (Affymetrix microarrays); set-up: species or system human; key: very highly over-expressed in tumors compared to a panel of normal tissues (+++); highly over-expressed in tumors compared to a panel of normal tissues (++); over-expressed in tumors compared to a panel of normal tissues (+); details: over-expression in tumors compared to a panel of normal tissues
[2] = test system: HLA molecules from shock-frozen tissue samples (CRC, other tumors, normal tissues); test: Identification and label-free relative LC-MS quantitation of HLA-presented tumor associated peptides (presentation profiles, XPRESIDENT); set-up: species or system human; key to Peptide Presentation (presentation score): very highly over-presented on tumors compared to a panel of normal tissues (+++); highly over-presented on tumors compared to a panel of normal tissues (++); over-presented on tumors compared to a panel of normal tissues (+); details: for Other relevant organs/diseases: additional tumor types: over-presented on more than 5% of measured tumor samples, or presented on more than 5% with ratio of geometric means tumor vs normal larger than 3; for Peptide Presentation (presentation score): over-presentation on tumors compared to a panel of normal tissues; for Additional Entities (additional tumor types on which the peptide was found): over-presentation on more than 5% of the measured tumor samples, or presentation on more than 5% of the measured tumor samples with ratio of geometric means tumor vs normal tissues larger than 3

Substance: 257: peptide found in CNOT1 (gene looked up) (SLADFMQEV; listed as Homo sapiens) [compound 257]
- Gene Expression (expression score of source gene) [1]: +
- Other relevant organs/diseases [2]: Lung, Prostate, MCC, Ovary
- Peptide Presentation (presentation score) [2]: ++

Substance: 8: peptide found in HSPD1 (gene looked up) (ALMLQGVDLL; listed as Homo sapiens) [compound 8]
- Gene Expression (expression score of source gene) [1]: +
- Other relevant organs/diseases [2]: Pancreas, Leukocytes
- Additional Entities (additional tumor types on which the peptide was found) [2]: BRCA, Melanoma, Urinary bladder cancer, AML
- Peptide Presentation (presentation score) [2]: +++

Substance: 67: peptide found in SMARCA4 (gene looked up) (SLNDLEKDVMLL; listed as Homo sapiens) [compound 67]
- Gene Expression (expression score of source gene) [1]: ++
- Other relevant organs/diseases [2]: Leukocytes, Melanoma
- Additional Entities (additional tumor types on which the peptide was found) [2]: SCLC, Urinary bladder cancer, Uterine Cancer, AML, NHL
- Peptide Presentation (presentation score) [2]: +

Substance: 184: peptide found in PRKDC (gene looked up) (SLLDENNVSSYL; listed as Homo sapiens) [compound 184]
- Gene Expression (expression score of source gene) [1]: +
- Other relevant organs/diseases [2]: Lung, Kidney, Liver, Pancreas, Prostate, MCC, Melanoma, Ovary, Esophagus
- Additional Entities (additional tumor types on which the peptide was found) [2]: SCLC, CLL, BRCA, Urinary bladder cancer, Gallbladder Cancer, Bile Duct Cancer, AML, NHL, OC

Substance: 241: peptide found in CCNB1 (gene looked up) (ILIDWLVQV; listed as Homo sapiens) [compound 241]
- Gene Expression (expression score of source gene) [1]: +++
- Other relevant organs/diseases [2]: Lung, Kidney, Brain, Liver, Pancreas, Ovary, Esophagus
- Peptide Presentation (presentation score) [2]: +

Substance: 64: peptide found in SOX9 (gene looked up) (KTLGKLWRL; listed as Homo sapiens) [compound 64]
- Gene Expression (expression score of source gene) [1]: ++
- Additional Entities (additional tumor types on which the peptide was found) [2]: Melanoma
- Peptide Presentation (presentation score) [2]: +++

Substance: 192: peptide found in MMP12 (gene looked up) (KIQEMQHFL; listed as Homo sapiens) [compound 192]
- Gene Expression (expression score of source gene) [1]: ++
- Other relevant organs/diseases [2]: Lung, Esophagus
- Peptide Presentation (presentation score) [2]: +++

Substance: 123: peptide found in RRM1 (gene looked up) (KTLERSYLL; listed as Homo sapiens) [compound 123]
- Gene Expression (expression score of source gene) [1]: +++
- Other relevant organs/diseases [2]: Lung, Kidney, Liver, MCC, Ovary, Esophagus
- Additional Entities (additional tumor types on which the peptide was found) [2]: SCLC, BRCA, Urinary bladder cancer, Uterine Cancer, AML, NHL, PC
- Peptide Presentation (presentation score) [2]: +++

Substance: 75: peptide found in CFTR (gene looked up) (EMIENIQSV; listed as Homo sapiens) [compound 75]
- Gene Expression (expression score of source gene) [1]: +++
- Additional Entities (additional tumor types on which the peptide was found) [2]: Gallbladder Cancer, Bile Duct Cancer
- Peptide Presentation (presentation score) [2]: +

Substance: 29: peptide found in AP3D1 (gene looked up) (QMLDVAIRV; listed as Homo sapiens) [compound 29]
- Gene Expression (expression score of source gene) [1]: +
- Other relevant organs/diseases [2]: Leukocytes
- Additional Entities (additional tumor types on which the peptide was found) [2]: BRCA

Substance: 135: peptide found in CENPE (gene looked up) (KLQEEIPVL; listed as Homo sapiens) [compound 135]
- Gene Expression (expression score of source gene) [1]: +
- Other relevant organs/diseases [2]: Lung
- Additional Entities (additional tumor types on which the peptide was found) [2]: BRCA, Melanoma, NHL
- Peptide Presentation (presentation score) [2]: +++

Substance: 228: peptide found in HNRNPH1 (gene looked up) (SMSGYDQVL; listed as Homo sapiens) [compound 228]
- Gene Expression (expression score of source gene) [1]: +++
- Other relevant organs/diseases [2]: Lung, Leukocytes
- Peptide Presentation (presentation score) [2]: +

Substance: 223: peptide found in CDK1 (gene looked up) (VLMQDSRLYL; listed as Homo sapiens) [compound 223]
- Gene Expression (expression score of source gene) [1]: +++
- Other relevant organs/diseases [2]: Lung
- Peptide Presentation (presentation score) [2]: +++

Substance: 124: peptide found in AURKB (gene looked up) (RVLPPSALQSV; listed as Homo sapiens) [compound 124]
- Gene Expression (expression score of source gene) [1]: ++
- Other relevant organs/diseases [2]: Lung, Liver, MCC, Melanoma, Ovary, Esophagus
- Additional Entities (additional tumor types on which the peptide was found) [2]: SCLC, BRCA, Urinary bladder cancer, Uterine Cancer, Gallbladder Cancer, Bile Duct Cancer, AML, NHL, PC
- Peptide Presentation (presentation score) [2]: ++

Substance: 240: peptide found in RCN1 (gene looked up) (VLAPRVLRA; listed as Homo sapiens) [compound 240]
- Gene Expression (expression score of source gene) [1]: ++
- Other relevant organs/diseases [2]: Lung, Kidney, Brain, Liver, Pancreas, Ovary
- Peptide Presentation (presentation score) [2]: ++

Substance: 225: peptide found in TOP2A (gene looked up) (YLYGQTTTYL; listed as Homo sapiens) [compound 225]
- Gene Expression (expression score of source gene) [1]: +++
- Other relevant organs/diseases [2]: Lung, Kidney, Stomach, Liver, Melanoma, Ovary, Esophagus
- Peptide Presentation (presentation score) [2]: +

Substance: 130: peptide found in PRRC2C (gene looked up) (GLGGSQLIDTHL; listed as Homo sapiens) [compound 130]
- Gene Expression (expression score of source gene) [1]: ++
- Additional Entities (additional tumor types on which the peptide was found) [2]: Esophageal Cancer, Uterine Cancer
- Peptide Presentation (presentation score) [2]: +++

Substance: 47: peptide found in ERBB3 (gene looked up) (KLYERCEVV; listed as Homo sapiens) [compound 47]
- Gene Expression (expression score of source gene) [1]: +
- Other relevant organs/diseases [2]: Liver
- Additional Entities (additional tumor types on which the peptide was found) [2]: Melanoma
- Peptide Presentation (presentation score) [2]: ++

Substance: 68: peptide found in PTPRO (gene looked up) (SILQFVHMV; listed as Homo sapiens) [compound 68]
- Gene Expression (expression score of source gene) [1]: +
- Peptide Presentation (presentation score) [2]: ++

Substance: 160: peptide found in SYNJ2 (gene looked up) (KLLEFDQLQL; listed as Homo sapiens) [compound 160]
- Gene Expression (expression score of source gene) [1]: +
- Other relevant organs/diseases [2]: Lung, Kidney, Leukocytes, Ovary
- Additional Entities (additional tumor types on which the peptide was found) [2]: SCLC
- Peptide Presentation (presentation score) [2]: ++

Substance: 84: peptide found in DSP (gene looked up) (SMVEDITGLRL; listed as Homo sapiens) [compound 84]
- Gene Expression (expression score of source gene) [1]: +
- Other relevant organs/diseases [2]: Lung, Liver, Esophagus
- Additional Entities (additional tumor types on which the peptide was found) [2]: SCLC, OC, Urinary bladder cancer, Uterine Cancer, NHL

Substance: 187: peptide found in CNOT1 (gene looked up) (GLHNVVYGI; listed as Homo sapiens) [compound 187]
- Gene Expression (expression score of source gene) [1]: +
- Other relevant organs/diseases [2]: Prostate
- Additional Entities (additional tumor types on which the peptide was found) [2]: CLL, Melanoma, Urinary bladder cancer, NHL
- Peptide Presentation (presentation score) [2]: ++

Substance: 140: peptide found in NCAPG (gene looked up) (LLNEILEQV; listed as Homo sapiens) [compound 140]
- Gene Expression (expression score of source gene) [1]: +++
- Other relevant organs/diseases [2]: Lung, Melanoma, Ovary
- Additional Entities (additional tumor types on which the peptide was found) [2]: SCLC, CLL, Urinary bladder cancer, Uterine Cancer, Gallbladder Cancer, Bile Duct Cancer, AML, NHL

Substance: 112: peptide found in GALNT7 (gene looked up) (KLGQVLIYL; listed as Homo sapiens) [compound 112]
- Gene Expression (expression score of source gene) [1]: ++
- Peptide Presentation (presentation score) [2]: +++

Substance: 13: peptide found in SMC2 (gene looked up) (FLLAEDTKV; listed as Homo sapiens) [compound 13]
- Gene Expression (expression score of source gene) [1]: +++
- Other relevant organs/diseases [2]: Melanoma
- Additional Entities (additional tumor types on which the peptide was found) [2]: Urinary bladder cancer, AML, NHL, OC
- Peptide Presentation (presentation score) [2]: +++

Substance: 215: peptide found in CENPE (gene looked up) (KLQEKIQEL; listed as Homo sapiens) [compound 215]
- Gene Expression (expression score of source gene) [1]: +
- Other relevant organs/diseases [2]: Lung, Ovary, Esophagus
- Peptide Presentation (presentation score) [2]: +++

Substance: 17: peptide found in SLC12A2 (gene looked up) (ALAAARVEL; listed as Homo sapiens) [compound 17]
- Gene Expression (expression score of source gene) [1]: +++
- Peptide Presentation (presentation score) [2]: +++

Substance: 92: peptide found in PARN (gene looked up) (WIDDTSAFV; listed as Homo sapiens) [compound 92]
- Gene Expression (expression score of source gene) [1]: +
- Other relevant organs/diseases [2]: Melanoma
- Peptide Presentation (presentation score) [2]: +++

Substance: 172: peptide found in COPG1 (gene looked up) (LLLDTVTMQV; listed as Homo sapiens) [compound 172]
- Gene Expression (expression score of source gene) [1]: +
- Other relevant organs/diseases [2]: Kidney, Melanoma, Ovary
- Additional Entities (additional tumor types on which the peptide was found) [2]: Urinary bladder cancer, Gallbladder Cancer, Bile Duct Cancer, AML
- Peptide Presentation (presentation score) [2]: +

— US10513547B2, “Peptides and combination of peptides and scaffolds thereof for use in immunotherapy against colorectal carcinoma (CRC) and other cancers” (Immatics Biotechnologies GmbH, priority 2015, dated 2019)
